The data set is described as follows: micronisation losses. To be noted: micronisation of crystalline particles; for Form A due to blockage of the milling equipment.

With `CNCCOc1ccccc1C1(Nc2nccn(-c3cc(C(=O)NC4CC4)cc(F)c3C)c2=O)CC1` [Form A, N-cyclopropyl-3-fluoro-4-methyl-5-[3-[[1-[2-[2-(methylamino)ethoxy]phenyl]cyclopropyl]amino]-2-oxo-pyrazin-1-yl]benzamide, reference compound], the typical micronisation losses result is “up to 50%”. Then `CNCCOc1ccccc1C1(Nc2nccn(-c3cc(C(=O)NC4CC4)cc(F)c3C)c2=O)CC1` [Form S, N-cyclopropyl-3-fluoro-4-methyl-5-[3-[[1-[2-[2-(methylamino)ethoxy]phenyl]cyclopropyl]amino]-2-oxo-pyrazin-1-yl]benzamide], with “less than 5%”.

These data come from patent US20190100498A1, “CRYSTALLINE FORM” (AstraZeneca AB, priority 2016, published 2019).
